# Measurements reported in the supplement of paper PMC10849652.
# Chains of the proteins cited; added tags and fusions are not shown. Lines headed by an entry give the natural chain unless they say otherwise; changes in a name come on top.
# UniProt Q9NZ63: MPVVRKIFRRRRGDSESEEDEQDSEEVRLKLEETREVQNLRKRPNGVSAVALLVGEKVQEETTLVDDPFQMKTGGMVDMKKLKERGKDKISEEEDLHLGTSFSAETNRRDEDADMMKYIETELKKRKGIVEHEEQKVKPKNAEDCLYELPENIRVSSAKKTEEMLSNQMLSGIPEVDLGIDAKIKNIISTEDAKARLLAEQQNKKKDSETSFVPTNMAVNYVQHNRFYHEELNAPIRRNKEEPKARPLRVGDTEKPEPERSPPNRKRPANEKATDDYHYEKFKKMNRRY
# UniProt Q9Y2V0: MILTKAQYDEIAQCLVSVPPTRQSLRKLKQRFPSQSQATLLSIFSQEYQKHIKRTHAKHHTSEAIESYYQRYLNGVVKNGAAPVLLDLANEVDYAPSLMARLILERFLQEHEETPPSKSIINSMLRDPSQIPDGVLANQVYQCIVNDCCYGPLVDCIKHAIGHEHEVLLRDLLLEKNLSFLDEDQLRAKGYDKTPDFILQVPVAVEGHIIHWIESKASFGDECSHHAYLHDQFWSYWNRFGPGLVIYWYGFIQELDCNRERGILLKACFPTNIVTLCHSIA
# UniProt Q9BTV7: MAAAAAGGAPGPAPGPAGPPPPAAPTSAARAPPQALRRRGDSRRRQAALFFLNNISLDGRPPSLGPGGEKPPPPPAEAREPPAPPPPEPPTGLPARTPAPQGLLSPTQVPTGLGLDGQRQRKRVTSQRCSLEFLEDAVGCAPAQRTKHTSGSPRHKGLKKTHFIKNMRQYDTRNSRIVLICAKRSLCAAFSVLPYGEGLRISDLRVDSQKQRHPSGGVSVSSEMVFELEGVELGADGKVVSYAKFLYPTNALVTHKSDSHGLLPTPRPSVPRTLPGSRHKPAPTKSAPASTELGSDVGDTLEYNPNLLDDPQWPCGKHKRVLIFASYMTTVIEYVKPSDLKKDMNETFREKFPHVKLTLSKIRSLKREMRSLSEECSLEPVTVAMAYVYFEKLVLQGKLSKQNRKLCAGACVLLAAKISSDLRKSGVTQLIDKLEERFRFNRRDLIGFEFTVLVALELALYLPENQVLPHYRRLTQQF
# UniProt O00478: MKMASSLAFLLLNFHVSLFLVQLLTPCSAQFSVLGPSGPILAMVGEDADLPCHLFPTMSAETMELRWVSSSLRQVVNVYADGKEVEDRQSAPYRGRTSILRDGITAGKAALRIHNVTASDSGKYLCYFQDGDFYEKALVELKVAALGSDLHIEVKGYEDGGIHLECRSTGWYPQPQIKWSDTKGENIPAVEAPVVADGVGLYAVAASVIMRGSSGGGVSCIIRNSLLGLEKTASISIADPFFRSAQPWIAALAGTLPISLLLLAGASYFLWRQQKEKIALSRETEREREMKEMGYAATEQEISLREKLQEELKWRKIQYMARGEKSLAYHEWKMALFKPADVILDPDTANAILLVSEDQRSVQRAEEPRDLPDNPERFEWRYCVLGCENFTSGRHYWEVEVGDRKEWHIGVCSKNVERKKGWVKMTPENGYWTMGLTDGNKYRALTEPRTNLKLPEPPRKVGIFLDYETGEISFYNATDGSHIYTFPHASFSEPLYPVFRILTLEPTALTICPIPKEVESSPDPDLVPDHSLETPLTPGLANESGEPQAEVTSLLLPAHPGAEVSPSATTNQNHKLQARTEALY
# UniProt Q9UFG5: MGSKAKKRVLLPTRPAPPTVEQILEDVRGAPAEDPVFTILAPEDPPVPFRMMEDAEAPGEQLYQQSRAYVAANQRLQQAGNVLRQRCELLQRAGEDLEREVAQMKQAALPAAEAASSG
# UniProt Q8IYL3: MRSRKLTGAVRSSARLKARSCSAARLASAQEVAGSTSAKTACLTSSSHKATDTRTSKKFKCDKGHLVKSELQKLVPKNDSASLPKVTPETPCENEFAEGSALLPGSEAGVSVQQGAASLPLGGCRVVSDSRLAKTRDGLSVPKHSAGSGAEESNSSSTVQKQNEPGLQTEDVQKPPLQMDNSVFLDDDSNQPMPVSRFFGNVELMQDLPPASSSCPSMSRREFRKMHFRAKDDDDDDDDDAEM
# UniProt Q5JPI3: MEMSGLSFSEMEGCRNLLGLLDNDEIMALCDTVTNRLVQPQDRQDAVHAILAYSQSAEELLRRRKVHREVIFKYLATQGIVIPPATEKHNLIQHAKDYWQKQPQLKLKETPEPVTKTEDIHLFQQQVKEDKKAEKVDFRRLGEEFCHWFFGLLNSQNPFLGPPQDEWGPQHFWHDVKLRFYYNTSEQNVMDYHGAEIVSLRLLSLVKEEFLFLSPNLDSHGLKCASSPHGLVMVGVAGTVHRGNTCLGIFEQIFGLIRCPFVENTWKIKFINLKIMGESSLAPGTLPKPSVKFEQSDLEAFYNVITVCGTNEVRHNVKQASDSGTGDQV
# UniProt Q9H425: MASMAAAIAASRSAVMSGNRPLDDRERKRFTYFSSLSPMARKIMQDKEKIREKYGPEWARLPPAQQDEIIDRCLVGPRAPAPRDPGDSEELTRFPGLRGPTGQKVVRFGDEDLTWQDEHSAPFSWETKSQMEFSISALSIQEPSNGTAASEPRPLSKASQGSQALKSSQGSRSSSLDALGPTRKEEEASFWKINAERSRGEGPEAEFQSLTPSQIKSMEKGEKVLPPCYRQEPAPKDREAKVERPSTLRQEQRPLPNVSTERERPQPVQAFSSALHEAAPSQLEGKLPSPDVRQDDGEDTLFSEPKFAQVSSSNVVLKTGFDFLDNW
# UniProt Q5SNV9: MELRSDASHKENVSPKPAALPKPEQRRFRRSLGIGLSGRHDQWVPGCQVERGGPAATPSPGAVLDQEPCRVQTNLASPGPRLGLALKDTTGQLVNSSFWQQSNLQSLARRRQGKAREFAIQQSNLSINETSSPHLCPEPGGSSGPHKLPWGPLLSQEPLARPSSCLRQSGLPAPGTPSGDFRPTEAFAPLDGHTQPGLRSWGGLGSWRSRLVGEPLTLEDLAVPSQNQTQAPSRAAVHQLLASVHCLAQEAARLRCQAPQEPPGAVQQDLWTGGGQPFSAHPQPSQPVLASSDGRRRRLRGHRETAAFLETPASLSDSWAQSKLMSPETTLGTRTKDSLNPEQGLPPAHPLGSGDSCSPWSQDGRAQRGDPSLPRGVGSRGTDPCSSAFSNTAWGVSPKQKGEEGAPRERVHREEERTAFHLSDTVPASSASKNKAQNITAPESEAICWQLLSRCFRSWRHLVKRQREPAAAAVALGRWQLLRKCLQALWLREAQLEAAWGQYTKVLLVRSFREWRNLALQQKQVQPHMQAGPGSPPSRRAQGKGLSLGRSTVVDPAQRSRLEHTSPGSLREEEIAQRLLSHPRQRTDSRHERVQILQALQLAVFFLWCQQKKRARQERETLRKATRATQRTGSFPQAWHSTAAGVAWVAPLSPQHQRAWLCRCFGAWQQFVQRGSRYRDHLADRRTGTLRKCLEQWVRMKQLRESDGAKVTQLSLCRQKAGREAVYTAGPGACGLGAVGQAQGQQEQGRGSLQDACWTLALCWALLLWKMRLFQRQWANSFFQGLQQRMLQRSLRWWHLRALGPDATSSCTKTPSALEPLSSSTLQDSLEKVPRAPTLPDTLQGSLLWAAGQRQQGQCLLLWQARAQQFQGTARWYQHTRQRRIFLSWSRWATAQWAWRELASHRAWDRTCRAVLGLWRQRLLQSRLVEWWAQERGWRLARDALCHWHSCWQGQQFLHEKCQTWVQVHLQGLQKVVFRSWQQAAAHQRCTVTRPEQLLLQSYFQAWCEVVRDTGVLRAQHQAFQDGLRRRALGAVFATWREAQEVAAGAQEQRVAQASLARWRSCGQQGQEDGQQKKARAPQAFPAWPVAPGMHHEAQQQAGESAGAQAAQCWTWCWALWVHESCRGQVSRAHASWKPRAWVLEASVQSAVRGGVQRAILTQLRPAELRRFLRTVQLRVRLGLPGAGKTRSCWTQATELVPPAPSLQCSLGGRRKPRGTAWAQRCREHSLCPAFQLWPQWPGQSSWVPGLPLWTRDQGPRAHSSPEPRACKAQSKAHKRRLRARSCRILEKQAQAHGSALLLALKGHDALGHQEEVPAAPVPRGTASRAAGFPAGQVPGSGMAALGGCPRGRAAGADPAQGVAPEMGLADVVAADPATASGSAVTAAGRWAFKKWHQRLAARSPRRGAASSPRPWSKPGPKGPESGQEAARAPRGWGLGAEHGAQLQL
# UniProt P47756, whole entry, looked up: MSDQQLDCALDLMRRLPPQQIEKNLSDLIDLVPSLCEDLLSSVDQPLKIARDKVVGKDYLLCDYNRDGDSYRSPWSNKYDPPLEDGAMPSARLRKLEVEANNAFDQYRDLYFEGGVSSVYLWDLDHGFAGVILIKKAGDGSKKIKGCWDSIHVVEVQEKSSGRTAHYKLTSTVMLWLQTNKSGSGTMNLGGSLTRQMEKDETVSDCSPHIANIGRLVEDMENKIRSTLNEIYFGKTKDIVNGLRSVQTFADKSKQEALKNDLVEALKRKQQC
# UniProt Q8N5S9: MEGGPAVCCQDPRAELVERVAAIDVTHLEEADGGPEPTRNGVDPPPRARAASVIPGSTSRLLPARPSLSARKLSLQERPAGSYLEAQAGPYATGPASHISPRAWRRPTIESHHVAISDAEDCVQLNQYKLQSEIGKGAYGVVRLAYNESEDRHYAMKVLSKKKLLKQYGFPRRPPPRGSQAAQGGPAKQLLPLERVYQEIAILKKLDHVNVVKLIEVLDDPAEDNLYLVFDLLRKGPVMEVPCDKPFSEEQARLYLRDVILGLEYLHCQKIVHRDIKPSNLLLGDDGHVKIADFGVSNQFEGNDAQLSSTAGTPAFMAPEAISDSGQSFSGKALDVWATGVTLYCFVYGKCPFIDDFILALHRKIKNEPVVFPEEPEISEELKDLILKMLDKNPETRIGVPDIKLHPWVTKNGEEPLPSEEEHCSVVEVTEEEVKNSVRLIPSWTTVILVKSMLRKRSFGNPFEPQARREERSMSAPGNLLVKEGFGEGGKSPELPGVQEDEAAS
# UniProt P05937: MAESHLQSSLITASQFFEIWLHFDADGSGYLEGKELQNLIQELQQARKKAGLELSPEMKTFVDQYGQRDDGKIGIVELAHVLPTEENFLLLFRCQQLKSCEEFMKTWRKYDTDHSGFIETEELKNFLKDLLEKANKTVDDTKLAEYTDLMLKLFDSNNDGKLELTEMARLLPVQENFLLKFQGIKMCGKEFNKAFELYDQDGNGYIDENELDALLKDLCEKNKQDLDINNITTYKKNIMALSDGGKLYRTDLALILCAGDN
# UniProt Q7KYR7: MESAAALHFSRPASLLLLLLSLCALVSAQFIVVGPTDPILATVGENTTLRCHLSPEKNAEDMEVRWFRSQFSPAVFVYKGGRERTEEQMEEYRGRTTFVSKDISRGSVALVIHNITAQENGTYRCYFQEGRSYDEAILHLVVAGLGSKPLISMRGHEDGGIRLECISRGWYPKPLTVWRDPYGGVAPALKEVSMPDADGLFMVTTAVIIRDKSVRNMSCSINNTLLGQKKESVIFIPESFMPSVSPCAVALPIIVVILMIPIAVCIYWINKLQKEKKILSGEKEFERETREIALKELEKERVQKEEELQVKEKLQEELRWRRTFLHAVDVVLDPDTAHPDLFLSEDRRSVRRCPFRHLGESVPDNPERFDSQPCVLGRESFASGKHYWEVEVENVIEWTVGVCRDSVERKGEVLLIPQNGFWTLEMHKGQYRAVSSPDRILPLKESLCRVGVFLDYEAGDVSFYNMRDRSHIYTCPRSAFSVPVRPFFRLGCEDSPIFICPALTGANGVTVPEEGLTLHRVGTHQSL
# UniProt Q01518, whole entry, looked up: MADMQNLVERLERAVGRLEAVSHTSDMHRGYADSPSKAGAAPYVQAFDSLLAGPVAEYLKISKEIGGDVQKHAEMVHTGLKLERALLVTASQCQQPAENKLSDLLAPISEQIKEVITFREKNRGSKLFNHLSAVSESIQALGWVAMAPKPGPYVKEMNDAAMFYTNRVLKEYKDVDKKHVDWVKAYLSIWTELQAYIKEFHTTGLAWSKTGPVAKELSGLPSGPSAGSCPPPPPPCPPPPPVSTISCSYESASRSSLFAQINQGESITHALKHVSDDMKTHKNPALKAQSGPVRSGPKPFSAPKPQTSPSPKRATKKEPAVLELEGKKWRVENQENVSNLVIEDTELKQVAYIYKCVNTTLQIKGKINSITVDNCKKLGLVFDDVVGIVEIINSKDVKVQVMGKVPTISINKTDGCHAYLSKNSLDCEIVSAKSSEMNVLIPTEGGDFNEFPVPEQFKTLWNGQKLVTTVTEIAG
# UniProt Q9H8G2: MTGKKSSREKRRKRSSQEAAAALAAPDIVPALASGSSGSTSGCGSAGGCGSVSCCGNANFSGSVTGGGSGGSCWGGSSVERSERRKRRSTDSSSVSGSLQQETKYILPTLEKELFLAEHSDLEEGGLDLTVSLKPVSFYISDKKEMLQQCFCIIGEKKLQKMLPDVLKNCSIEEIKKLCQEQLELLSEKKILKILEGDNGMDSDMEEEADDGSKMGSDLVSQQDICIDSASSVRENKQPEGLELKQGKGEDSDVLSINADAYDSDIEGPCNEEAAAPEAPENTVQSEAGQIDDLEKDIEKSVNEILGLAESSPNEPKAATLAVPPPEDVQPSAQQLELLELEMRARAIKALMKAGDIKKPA
# The list shows a part of the results.
# Compound: C1=CC=C(C=C1)[C@H](COC2=CC3=C(C=C2)NC(=O)N3)NC(=O)C4=CC=CN(C4=O)CC5=CC(=C(C=C5)F)F
# Experiment: log2 fold change, soluble protein after heating vs DMSO (PISA); higher = thermal stabilisation; K562 lysate, 10 uM; active = over 0.2 and 3.5 SD of the protein, either way, in both replicates (recomputed)
# Summary of the method: (§1)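 Dounce homogenisation of K562 pellets in PBS pH 7.4 with 1 mM MgCl2 produced a crude extract, used at 1 mg/mL protein. Exposure to 10 μM compound lasted 30 min, and aliquots were then heated for 3 min across 48°C-58°C, pooled and brought to 0.5% NP-40 at 4°C. The supernatant after 21,000xg for 90 min was quantified by TMTpro 16plex LC-MS/MS with channel sums equalised. Duplicate values are given as log-two fold change in thermal stability relative to solvent controls.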
row,Target,log2 fold change
1,C1orf112 (UniProt Q9NSG2),inactive: 0.066
2,CAMK2B (UniProt Q13554),inactive: 0.036
3,CAB39 (UniProt Q9Y376),inactive: -0.018
4,C9orf78 (UniProt Q9NZ63),inactive: 0.068
5,C16orf70 (UniProt Q9BSU1),inactive: -0.007
6,CAPNS1 (UniProt P04632),inactive: 0
7,C15orf41 (UniProt Q9Y2V0),inactive: 0.111
8,C18orf25 (UniProt Q96B23),inactive: 0.013
9,CABLES2 (UniProt Q9BTV7),inactive: 0.006
10,C1orf52 (UniProt Q8N6N3),inactive: 0.013
11,CA2 (UniProt P00918),inactive: -0.058
12,BTN3A3 (UniProt O00478),inactive: 0.094
13,C19orf53 (UniProt Q9UNZ5),inactive: 0.057
14,C1GALT1C1 (UniProt Q96EU7),inactive: -0.063
15,C19orf25 (UniProt Q9UFG5),inactive: 0.108
16,C20orf27 isoform 2 (UniProt Q9GZN8),inactive: -0.016
17,C1orf174 (UniProt Q8IYL3),inactive: 0.01
18,CACTIN isoform 2 (UniProt Q8WUQ7),inactive: 0.015
19,C3orf38 (UniProt Q5JPI3),inactive: -0.054
20,C1orf198 (UniProt Q9H425),inactive: 0.093

row,Target,log2 fold change
1,C1orf167 isoform 2 (UniProt Q5SNV9),inactive: -0.11
2,C6orf89 isoform 2 (UniProt Q6UWU4),inactive: 0.058
3,CAPZB isoform 2 (UniProt P47756),inactive: 0.078
4,C8orf76 (UniProt Q96K31),inactive: 0.16
5,C12orf4 (UniProt Q9NQ89),inactive: 0.281
6,CAMKK1 isoform 2 (UniProt Q8N5S9),inactive: 0.006
7,BUD23 isoform 3 (UniProt O43709),inactive: 0.076
8,C6orf47 (UniProt O95873),inactive: -0.009
9,CAPNS1 (UniProt U3KPR7),inactive: 0.019
10,CALB1 (UniProt P05937),inactive: -0.013
11,C8orf82 (UniProt Q6P1X6),inactive: 0.076
12,C3 (UniProt P01024),inactive: 0.013
13,BUB1B isoform 3 (UniProt O60566),inactive: -0.013
14,BTN2A1 (UniProt Q7KYR7),inactive: -0.001
15,BUB3 (UniProt O43684),inactive: 0.012
16,BUD31 (UniProt P41223),inactive: 0.012
17,CAP1 (UniProt Q01518),inactive: -0.016
18,CAAP1 (UniProt Q9H8G2),inactive: -0.007
19,CAPZB (UniProt P47756),inactive: 0.005
20,CAND2 (UniProt O75155),inactive: 0.01

# Compound: CC1=C(SC2=C1C(=N[C@H](C3=NN=C(N32)C)CC(=O)N)C4=CC=C(C=C4)Cl)C
# Experiment: as above
# Summary of the method: as §1
row,Target,log2 fold change
1,C1orf112 (UniProt Q9NSG2),inactive: -0.011
2,CAMK2B (UniProt Q13554),inactive: -0.052
3,CAB39 (UniProt Q9Y376),inactive: -0.008
4,C9orf78 (UniProt Q9NZ63),inactive: -0.018
5,C16orf70 (UniProt Q9BSU1),inactive: -0.073
6,CAPNS1 (UniProt P04632),inactive: -0.041
7,C15orf41 (UniProt Q9Y2V0),inactive: -0.007
8,C18orf25 (UniProt Q96B23),inactive: -0.035
9,CABLES2 (UniProt Q9BTV7),inactive: -0.007
10,C1orf52 (UniProt Q8N6N3),inactive: -0.029
11,CA2 (UniProt P00918),inactive: 0.013
12,BTN3A3 (UniProt O00478),inactive: 0.166
13,C19orf53 (UniProt Q9UNZ5),inactive: -0.058
14,C1GALT1C1 (UniProt Q96EU7),inactive: -0.012
15,C19orf25 (UniProt Q9UFG5),inactive: 0.084
16,C20orf27 isoform 2 (UniProt Q9GZN8),inactive: 0.035
17,C1orf174 (UniProt Q8IYL3),inactive: 0.032
18,CACTIN isoform 2 (UniProt Q8WUQ7),inactive: 0.023
19,C3orf38 (UniProt Q5JPI3),inactive: -0.019
20,C1orf198 (UniProt Q9H425),inactive: -0.028

row,Target,log2 fold change
1,C1orf167 isoform 2 (UniProt Q5SNV9),inactive: 0.042
2,C6orf89 isoform 2 (UniProt Q6UWU4),inactive: -0.065
3,CAPZB isoform 2 (UniProt P47756),inactive: -0.017
4,C8orf76 (UniProt Q96K31),inactive: 0.088
5,C12orf4 (UniProt Q9NQ89),inactive: 0.059
6,CAMKK1 isoform 2 (UniProt Q8N5S9),inactive: 0.03
7,BUD23 isoform 3 (UniProt O43709),inactive: 0.03
8,C6orf47 (UniProt O95873),inactive: 0.037
9,CAPNS1 (UniProt U3KPR7),inactive: 0.122
10,CALB1 (UniProt P05937),inactive: -0.098
11,C8orf82 (UniProt Q6P1X6),inactive: -0.049
12,C3 (UniProt P01024),inactive: 0.054
13,BUB1B isoform 3 (UniProt O60566),inactive: -0.005
14,BTN2A1 (UniProt Q7KYR7),inactive: 0.007
15,BUB3 (UniProt O43684),inactive: 0.047
16,BUD31 (UniProt P41223),inactive: 0.081
17,CAP1 (UniProt Q01518),inactive: 0.03
18,CAAP1 (UniProt Q9H8G2),inactive: 0.026
19,CAPZB (UniProt P47756),inactive: 0.003
20,CAND2 (UniProt O75155),inactive: 0.004
